{"source": "patent EP1200114B1", "about": "“PPAR DELTA INHIBITORS FOR THE TREATMENT OF CARDIOVASCULAR DISEASES” (priority 1999, dated 2001)", "type_in_all_cases": "cell-based, human", "key": {"pCLDNPPARδ cells": {"test_system": "pCLDNPPARδ cells", "test": "Foam cell formation and lipid analysis (TLC) in PPARδ over-expressing THP-1 cells"}, "THP-1 cells": {"test_system": "THP-1 cells", "test": "THP-1 foam cell model (PMA-activated cells, Oil Red O lipid staining)"}, "parental THP-1 cells": {"test_system": "parental THP-1 cells", "test": "PMA-induced differentiation (adherence to culture dish) of parental THP-1 cells", "conditions": "compared to untreated cells, data not shown", "experimental": "Cells were treated overnight with 5ng/ml PMA and scored for differentiation (adherence to culture dish) and viability (trypan blue exclusion).\nParental and PPARδ anti-sense cells were incubated with PMA and an inhibitor of PKC activity (Bis) and two inhibitors of PLA2 activity (OBAA and mepacrine). These inhibitors were included at concentrations used in previous studies for specific inhibition."}, "CD36": {"test_system": "CD36", "test": "FACS analysis of CD36 antigen expression in THP-1 cells", "conditions": "PMA treated, 48 hours at 50µM BRL49653"}, "TNFα": {"test_system": "TNFα", "test": "RNase protection analysis of TNFα mRNA in PMA treated THP-1 cells", "conditions": "compared to actin"}, "IL-1β": {"test_system": "IL-1β", "test": "RNase protection analysis of interleukin 1β mRNA in PMA treated THP-1 cells"}}, "note": "For at least one compound, name, drawing or mass did not settle the structure.", "data": [{"smiles": "CN(CCOc1ccc(CC2SC(=O)NC2=O)cc1)c1ccccn1", "note": "(stereo not shown) [BRL49653, rosiglitazone]", "values": [{"measurement": "PPARδ-driven foam cell formation", "setting": "pCLDNPPARδ cells; PMA 5ng/ml, BRL49653 50µM, 3 days", "value": "can prevent"}, {"measurement": "triglycerides pool of cellular lipid", "setting": "pCLDNPPARδ cells; TLC fatty acid analysis, BRL49653 50µM, 3 days", "value": "eliminated"}, {"measurement": "concentrations at which action is effective", "setting": "pCLDNPPARδ cells; parental THP-1 and pCLDNPPARδ cells, PMA 5ng/ml, subsequent experiments", "value": "submicromolar"}, {"measurement": "lipid deposits when compared to the untreated cells", "setting": "THP-1 cells; PMA treated THP-1 cells, 20µM BRL49653 for 3 days", "value": "reduction of lipid deposits"}, {"measurement": "foam cell formation", "setting": "THP-1 cells; adherent PMA-treated THP-1 cells", "value": "did not produce foam cells"}, {"measurement": "inhibition of linoleic acid and rexinoid promotion of foam cells", "setting": "THP-1 cells; data not shown", "value": "can inhibit"}, {"measurement": "cell adherence of THP-1 cells", "setting": "parental THP-1 cells", "value": "slower"}, {"measurement": "CD36 expression", "setting": "CD36", "value": "increased"}, {"measurement": "TNFα mRNA", "setting": "TNFα", "value": "reduction of TNFα mRNA"}, {"measurement": "IL-1β mRNA levels", "setting": "IL-1β", "value": "drop in IL-1β mRNA levels"}]}]}
